Assay results: paper PMC6881298

Biological target: B. subtilis RF2-GGP (catalytically inactive GGP mutant of release factor 2) (B. subtilis)
Assay: cryo-EM structure; B. subtilis BrfA62-His6 and RF2-GGP in 10x excess incubated 5 min at 37 °C with the purified E. coli non-stop 70S ribosome complex (ns70S, truncated nlpD mRNA); both proteins bound on the ribosome; 3.06 Å; both purified

binding: binds
B1: BrfA62-His6 (Bacillus ribosome rescue factor A, formerly YqkK, residues 1-62) (protein, UniProt P54573 1-62)
chain: MAKSQAKKKRGHRLRNGGRDVLLSRGSTPSFSTHGRMTKSKKEILNKRKHKNPYDHTAVDDK

No constants are given. Whether binding was seen depends on the method and setting. Binding calls can cover weak binding; strength is not graded here. Sequences can lack the tags named with a protein.
